Test results published in PubChem BioAssay AID248 (DTP/NCI, 2004).
The list is a part of this screen's results and no random one: it is rich in T/C values a quarter to a half above the control, in often repeated tests (any T/C) and in doses without a T/C. Other doses and runs of a compound stand elsewhere. T/C is the treated group as % of the vehicle group. Some doses have a count of surviving animals in place of a T/C: the source files T/C as zero there, which appears to mark a toxic dose or a test without result, not a measured value. Some doses without a T/C left all or most animals alive at the check, yet need not have been tolerated: the source hardly ever lists a survival T/C far under the control, and the zero likely stands for such cases as well. Survivors were counted at the toxicity check, usually on the fifth day, unless a day is given; later deaths do not show. Schedules are NCI's codes, taken here to give the interval after Q, in days (D) or hours (H), and the number of doses after X. Some schedule codes hold Z or #, which are not explained here. For survival time, this PubChem deposit counts one and a half times the control or more as active, and values a quarter to a half above the control carry no call in these data; other NCI protocols may use other cut-offs.

Test system: L1210 leukemia ip in BDF1 mice, survival T/C
Assay: NCI In Vivo Anticancer Drug Screen. Data for tumor model L1210 Leukemia (intraperitoneal) in B6D2F1 (BDF1) mice
Conditions: T/C endpoint: mean survival time, higher T/C = longer survival
[1] = dose: 400.0 mg/kg/injection, schedule: Q01DX001 (ip), vehicle: saline
[2] = dose: 400.0 mg/kg/injection, schedule: Q04DX003 (ip), vehicle: Klucel (hydroxypropylcellulose) (HPC)
[3] = dose: 200.0 mg/kg/injection, schedule: Q01DX001 (ip), vehicle: saline with Tween-80
[4] = dose: 400.0 mg/kg/injection, schedule: Q01DX009 (ip), vehicle: Klucel (hydroxypropylcellulose) (HPC)
[5] = dose: 100.0 mg/kg/injection, schedule: Q01DX001 (ip), vehicle: saline
[6] = dose: 200.0 mg/kg/injection, schedule: Q01DX001 (ip), vehicle: saline

## CNC(=O)c1ccc(NC(=O)Nc2ccc(C3=NCCN3)cc2)cc1NC(=O)Nc1ccc(C2=NCCN2)cc1
dose: 8.0 mg/kg/injection, schedule: Q01DX Z (ip), vehicle: carboxymethylcellulose (CMC)
  T/C: 130 % of control
dose: 13.0 mg/kg/injection, schedule: Q01DX Z (ip), vehicle: carboxymethylcellulose (CMC)
  T/C: 142 % of control
dose: 136.0 mg/kg/injection, schedule: Q01DX Z (ip), vehicle: carboxymethylcellulose (CMC)
  T/C: 127 % of control

## C=CCNC(=O)N(CC=C)N=O
dose: 250.0 mg/kg/injection, schedule: Q01DX001 (ip), vehicle: carboxymethylcellulose (CMC)
  survivor count: 1 of 6
dose: 375.0 mg/kg/injection, schedule: Q01DX001 (ip), vehicle: carboxymethylcellulose (CMC)
  survivor count: 0 of 6
dose: 500.0 mg/kg/injection, schedule: Q01DX001 (ip), vehicle: carboxymethylcellulose (CMC)
  survivor count: 0 of 6
dose: 750.0 mg/kg/injection, schedule: Q01DX001 (ip), vehicle: carboxymethylcellulose (CMC)
  survivor count: 0 of 6

## CCc1cc(C)cc(OC(=O)Nc2ccccc2)c1
dose: 400.0 mg/kg/injection, schedule: Q04DX003 (ip), vehicle: saline with Tween-80
  survivor count: 6 of 6

## CC(C)(C)C1=CC(=O)C=C(C(C)(C)C)C1=O
dose: 100.0 mg/kg/injection, schedule: Q04DX003 (ip), vehicle: Klucel (hydroxypropylcellulose) (HPC)
  survivor count: 6 of 6

## CCCCCCC[As](=O)(O)CCCCCCC
[1]
  survivor count: 1 of 4

## Cc1cc(OC(=O)c2ccc(N)cc2)ccc1C1=NCC(C)S1 (stereo not given)
dose: 100.0 mg/kg/injection, schedule: Q04DX002 (ip), vehicle: DMSO
  survivor count: 3 of 3
dose: 200.0 mg/kg/injection, schedule: Q04DX002 (ip), vehicle: DMSO
  survivor count: 3 of 3
dose: 400.0 mg/kg/injection, schedule: Q04DX002 (ip), vehicle: DMSO
  survivor count: 2 of 3

## CCCCCCCCCCCCCCCCCCN1CNC(=O)NC1
[2]
  survivor count: 6 of 6

## CC(C)C(NC(=O)CI)C(=O)Nc1ccc(C(=O)O)c(O)c1 (stereo not given)
[2]
  survivor count: 0 of 6

## Nc1ccn(C2OC(CO)C(O)C2OP(=O)(O)OCC2OC(n3ccc(=O)[nH]c3=O)CC2O)c(=O)n1 (stereo not given)
dose: 25.0 mg/kg/injection, schedule: Q01DX009 (ip), vehicle: saline
  T/C: 137 % of control

## CCCCCCCCOc1nccc(N)n1
dose: 150.0 mg/kg/injection, schedule: Q01DX001 (ip), vehicle: saline with Tween-80
  survivor count: 1 of 6
dose: 300.0 mg/kg/injection, schedule: Q01DX001 (ip), vehicle: saline with Tween-80
  survivor count: 0 of 6

## O=C1C(Br)=C(C2CCCCC2)C(=O)c2ccccc21
dose: 400.0 mg/kg/injection, schedule: Q01DX001 (ip), vehicle: carboxymethylcellulose (CMC)
  survivor count: 1 of 4

## CC/C(C)=N/C(=O)NN
[3]
  survivor count: 0 of 6
dose: 400.0 mg/kg/injection, schedule: Q01DX001 (ip), vehicle: saline with Tween-80
  survivor count: 0 of 6

## CC(C)=CC(=O)CNC(N)=S
[2]
  survivor count: 1 of 6

## C=CCc1ccc(OC(=O)NC(C)C)c(OC)c1
[4]
  survivor count: 3 of 3

## C/C(=N/NC(N)=S)c1ccc(Cl)cc1
dose: 20.0 mg/kg/injection, schedule: Q01DX001 (ip), vehicle: other
  survivor count: 0 of 4
dose: 40.0 mg/kg/injection, schedule: Q01DX001 (ip), vehicle: other
  survivor count: 0 of 4
dose: 80.0 mg/kg/injection, schedule: Q01DX001 (ip), vehicle: other
  survivor count: 0 of 4

## C[N+]1(C)C2CCCCC1CC(=O)C2
dose: 75.0 mg/kg/injection, schedule: Q01DX001 (ip), vehicle: saline
  survivor count: 1 of 6
dose: 150.0 mg/kg/injection, schedule: Q01DX001 (ip), vehicle: saline
  survivor count: 0 of 6
dose: 300.0 mg/kg/injection, schedule: Q01DX001 (ip), vehicle: saline
  survivor count: 0 of 6

## CC(=O)OC1CCC2(C)C(CCC3C2CCC2(C)C3CC3OC(CCCC(C)CO)C(C)C32)C1 (stereo not given)
dose: 100.0 mg/kg/injection, schedule: Q01DX001 (ip), vehicle: saline with Tween-80
  survivor count: 3 of 3
[3]
  survivor count: 3 of 3

## COc1cc(N)c2nccc(N(C)C)c2c1
dose: 400.0 mg/kg/injection, schedule: Q01DX009 (ip), vehicle: saline
  survivor count: 2 of 6

## O=C(NCCCCCCCCCCCCNC(=O)Nc1ccc(C2=NCC(O)CN2)cc1)Nc1ccc(C2=NCC(O)CN2)cc1 (stereo not given)
dose: 125.0 mg/kg/injection, schedule: Q01DX Z (ip), vehicle: carboxymethylcellulose (CMC)
  T/C: 133 % of control
dose: 500.0 mg/kg/injection, schedule: Q01DX Z (ip), vehicle: carboxymethylcellulose (CMC)
  survivor count: 0 of 6

## CC1=CC2=C(C(=O)C1=O)C(C)CCC2C(C)C (stereo not given)
[1]
  survivor count: 0 of 6

## CCn1ccc2c(N)ncnc21
[5]
  survivor count: 2 of 4
[6]
  survivor count: 0 of 4
[1]
  survivor count: 0 of 4

## CC(C)N(C(=O)Nc1cccc(F)c1)C1CCCCC1
dose: 200.0 mg/kg/injection, schedule: Q01DX009 (ip), vehicle: gum acacia
  survivor count: 6 of 6

## C#CCNc1c(C)cccc1C
[4]
  survivor count: 0 of 6
[2]
  survivor count: 2 of 6

## Cn1c(=O)n2n(c1=O)C1CCC2C2C=CC21 (stereo not given)
dose: 25.0 mg/kg/injection, schedule: Q01DX001 (ip), vehicle: saline
  survivor count: 0 of 6
[5]
  survivor count: 0 of 6
[6]
  survivor count: 0 of 6
[1]
  survivor count: 0 of 6

## CCCCCC(CN(C)C)C(=O)/C=C/c1ccc(Cl)c(Cl)c1 (stereo not given)
dose: 50.0 mg/kg/injection, schedule: Q04DX003 (ip), vehicle: acetone
  survivor count: 3 of 6
dose: 100.0 mg/kg/injection, schedule: Q04DX003 (ip), vehicle: acetone
  survivor count: 0 of 6
dose: 200.0 mg/kg/injection, schedule: Q04DX003 (ip), vehicle: acetone
  survivor count: 0 of 6
dose: 400.0 mg/kg/injection, schedule: Q04DX003 (ip), vehicle: acetone
  survivor count: 0 of 6

## CN(C)C(=S)N1CC2C3CCC(O3)C2C1 (stereo not given)
[2]
  survivor count: 0 of 6

## O=NN(CCCl)C(=O)Nc1ccc(I)cc1
dose: 5.6 mg/kg/injection, schedule: Q01DX009 (ip), vehicle: carboxymethylcellulose (CMC)
  T/C: 130 % of control
dose: 12.6 mg/kg/injection, schedule: Q01DX009 (ip), vehicle: carboxymethylcellulose (CMC)
  T/C: 147 % of control
dose: 19.0 mg/kg/injection, schedule: Q01DX009 (ip), vehicle: carboxymethylcellulose (CMC), evaluated on day 30
  T/C: 133 % of control
dose: 19.0 mg/kg/injection, schedule: Q01DX009 (ip), vehicle: carboxymethylcellulose (CMC), run until all animals had died
  T/C: 147 % of control
dose: 26.0 mg/kg/injection, schedule: Q01DX001 (ip), vehicle: carboxymethylcellulose (CMC)
  T/C: 132 % of control
dose: 29.0 mg/kg/injection, schedule: Q01DX009 (ip), vehicle: carboxymethylcellulose (CMC)
  T/C: 149 % of control
dose: 40.0 mg/kg/injection, schedule: Q01DX001 (ip), vehicle: carboxymethylcellulose (CMC), evaluated on day 30
  T/C: 125 % of control
dose: 40.0 mg/kg/injection, schedule: Q01DX001 (ip), vehicle: carboxymethylcellulose (CMC), run until all animals had died
  T/C: 135 % of control
dose: 44.0 mg/kg/injection, schedule: Q01DX009 (ip), vehicle: carboxymethylcellulose (CMC)
  T/C: 135 % of control
dose: 60.0 mg/kg/injection, schedule: Q01DX001 (ip), vehicle: carboxymethylcellulose (CMC)
  T/C: 127 % of control
dose: 89.0 mg/kg/injection, schedule: Q01DX001 (ip), vehicle: carboxymethylcellulose (CMC)
  T/C: 144 % of control
dose: 100.0 mg/kg/injection, schedule: Q01DX009 (ip), vehicle: carboxymethylcellulose (CMC)
  survivor count: 6 of 6
dose: 133.0 mg/kg/injection, schedule: Q01DX001 (ip), vehicle: carboxymethylcellulose (CMC), evaluated on day 30
  T/C: 142 % of control
dose: 133.0 mg/kg/injection, schedule: Q01DX001 (ip), vehicle: carboxymethylcellulose (CMC), run until all animals had died
  T/C: 138 % of control
dose: 200.0 mg/kg/injection, schedule: Q01DX001 (ip), vehicle: carboxymethylcellulose (CMC)
  T/C: 144 % of control
dose: 300.0 mg/kg/injection, schedule: Q01DX001 (ip), vehicle: carboxymethylcellulose (CMC), evaluated on day 30
  T/C: 147 % of control
dose: 300.0 mg/kg/injection, schedule: Q01DX001 (ip), vehicle: carboxymethylcellulose (CMC), run until all animals had died
  T/C: 143 % of control

## CCCCCCCCCCCCCS
dose: 300.0 mg/kg/injection, schedule: Q01DX Z (ip), vehicle: saline
  survivor count: 3 of 6

## O=C(O)c1c2ccccc2nc2ccccc12
[6]
  survivor count: 0 of 4
[1]
  survivor count: 0 of 4
